From article PMC4164784, “4E-BPs require non-canonical 4E-binding motifs and a lateral surface of eIF4E to repress translation” (Nature Communications, 2014)
Results are given in words; binding and its absence hold for the method and conditions named. For some of these results: Binding seen in cells or lysates may run through a third protein. Some binding calls cover weakened binding; strength is not graded here. Where a sequence is shown, tags or fusion partners need not be part of it. One block for each binder: values may come before it.

Assays:
[1] = target: T1, MBP-CUP C+NC-GB1 (Drosophila melanogaster) (UniProt Q9VMA3); assay: pull-down; MBP pull-down on amylose resin; purified eIF4E (69–248) added to cleared bacterial lysates with the MBP- and GB1-tagged fragments; 50 mM HEPES pH 7.2, 200 mM NaCl, 2 mM DTT; 1 h at 4 °C; Coomassie; only the binder purified
T1 sequence: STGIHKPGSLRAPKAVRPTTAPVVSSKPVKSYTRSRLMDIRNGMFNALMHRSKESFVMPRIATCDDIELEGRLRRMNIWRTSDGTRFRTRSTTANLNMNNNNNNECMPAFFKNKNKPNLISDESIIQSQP

[2] = target: T2, MBP-eIF4G-GB1 (residues 578–650) (Drosophila melanogaster) (UniProt O61380); assay: as above
T2 sequence: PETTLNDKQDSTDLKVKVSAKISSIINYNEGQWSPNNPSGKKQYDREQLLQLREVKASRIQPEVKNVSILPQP

[3] = target: T3, SHN-eIF4E (full length, WT) (Drosophila melanogaster) (UniProt P48598); assay: pull-down; competition titration: 2 μM purified SHN-eIF4E–GST-eIF4G complexes (coexpressed, co-purified) with 2–20 μM purified competitor, 20 min at 4 °C; eIF4E pulled down on Strep-Tactin Sepharose; both purified
T3 sequence: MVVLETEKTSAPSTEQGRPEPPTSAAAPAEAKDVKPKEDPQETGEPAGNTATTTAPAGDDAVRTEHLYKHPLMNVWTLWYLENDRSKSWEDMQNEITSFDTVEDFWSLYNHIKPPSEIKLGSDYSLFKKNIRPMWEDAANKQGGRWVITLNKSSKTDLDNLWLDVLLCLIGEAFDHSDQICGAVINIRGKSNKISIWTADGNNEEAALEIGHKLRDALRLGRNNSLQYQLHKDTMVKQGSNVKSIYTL

[4] = target: T4, MBP-tagged eIF4E (Drosophila melanogaster) (UniProt P48598); assay: pull-down; competition: purified MBP-eIF4E–GST-eIF4G complex mixed with bacterial lysates with fivefold molar excess of MBP-CUP-GB1 peptides, 30 min at 4 °C; eIF4E recovered on m7GTP-sepharose beads; only the target purified
T4 sequence: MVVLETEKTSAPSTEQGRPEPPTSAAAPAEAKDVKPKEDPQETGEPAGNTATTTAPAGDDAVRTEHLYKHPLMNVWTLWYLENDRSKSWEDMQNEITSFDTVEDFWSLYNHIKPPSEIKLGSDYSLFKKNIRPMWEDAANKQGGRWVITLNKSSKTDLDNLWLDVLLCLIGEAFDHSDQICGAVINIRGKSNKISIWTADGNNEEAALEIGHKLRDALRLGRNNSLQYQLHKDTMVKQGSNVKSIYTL

[5] = target: T5, GST-CUP-GB1 (residues 311–440, WT) (Drosophila melanogaster) (UniProt Q9VMA3); assay: pull-down; eIF4E coexpressed with the GST- or MBP-tagged bait in E. coli; cleared lysates on glutathione agarose or amylose resin, 1 h; 20 mM Tris–HCl pH 7.5, 100 mM NaCl, 1 mM DTT; Coomassie
T5 sequence: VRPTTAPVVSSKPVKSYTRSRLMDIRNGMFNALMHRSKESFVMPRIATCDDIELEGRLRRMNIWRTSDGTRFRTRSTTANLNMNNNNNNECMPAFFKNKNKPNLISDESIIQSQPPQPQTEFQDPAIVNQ

[6] = target: T6, MBP-Thor (full length, NC*) (Drosophila melanogaster) (UniProt Q9XZ56); assay: as above
T6 sequence: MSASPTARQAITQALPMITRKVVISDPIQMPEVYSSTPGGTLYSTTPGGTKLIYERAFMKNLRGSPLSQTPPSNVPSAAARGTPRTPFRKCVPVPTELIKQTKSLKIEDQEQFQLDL

[7] = target: T7, MBP-Thor (full length, WT) (Drosophila melanogaster) (UniProt Q9XZ56); assay: as above
T7 sequence: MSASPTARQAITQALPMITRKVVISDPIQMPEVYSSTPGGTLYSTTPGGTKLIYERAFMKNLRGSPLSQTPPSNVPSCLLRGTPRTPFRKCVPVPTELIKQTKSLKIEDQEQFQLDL

[8] = target: T8, MBP-Thor (full length, ΔNC) (Drosophila melanogaster) (UniProt Q9XZ56); assay: as above
T8 sequence: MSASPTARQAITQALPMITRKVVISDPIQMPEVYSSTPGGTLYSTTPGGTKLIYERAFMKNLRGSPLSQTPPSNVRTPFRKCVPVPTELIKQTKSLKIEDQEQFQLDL

[9] = target: T9, MBP-eIF4G (residues 578–650, WT) (Drosophila melanogaster) (UniProt O61380); assay: as above
T9 sequence: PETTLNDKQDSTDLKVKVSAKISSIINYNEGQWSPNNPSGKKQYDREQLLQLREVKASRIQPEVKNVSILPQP

[10] = target: T4, MBP-tagged eIF4E (Drosophila melanogaster); assay: pull-down; preassembled MBP-eIF4E–GST-eIF4G complex (coexpressed, purified on glutathione agarose) recovered on m7GTP-sepharose beads; both purified

B2: CUP C+NC peptide fused C-terminally to GB1 (domain or fragment, UniProt Q9VMA3 296-425)
chain: STGIHKPGSLRAPKAVRPTTAPVVSSKPVKSYTRSRLMDIRNGMFNALMHRSKESFVMPRIATCDDIELEGRLRRMNIWRTSDGTRFRTRSTTANLNMNNNNNNECMPAFFKNKNKPNLISDESIIQSQP
binding [3]: binds

B3: MBP-CUP C+NC-GB1 (domain or fragment, UniProt Q9VMA3 296-425)
chain: STGIHKPGSLRAPKAVRPTTAPVVSSKPVKSYTRSRLMDIRNGMFNALMHRSKESFVMPRIATCDDIELEGRLRRMNIWRTSDGTRFRTRSTTANLNMNNNNNNECMPAFFKNKNKPNLISDESIIQSQP
binding [4]: binds

B5: GST-eIF4G (residues 578–650) (domain or fragment, UniProt O61380 578-650)
chain: PETTLNDKQDSTDLKVKVSAKISSIINYNEGQWSPNNPSGKKQYDREQLLQLREVKASRIQPEVKNVSILPQP
binding [10]: binds

Continued, values first:

binding [1]: binds
binding [2]: binds
B1: eIF4E (residues 69–248), purified (domain or fragment, UniProt P48598-2 69-248)
chain: KHPLMNVWTLWYLENDRSKSWEDMQNEITSFDTVEDFWSLYNHIKPPSEIKLGSDYSLFKKNIRPMWEDAANKQGGRWVITLNKSSKTDLDNLWLDVLLCLIGEAFDHSDQICGAVINIRGKSNKISIWTADGNNEEAALEIGHKLRDALRLGRNNSLQYQLHKDTMVKQGSNVKSIYTL

binding [5]: binds
binding [6]: binds
binding [7]: binds
binding [8]: binds
binding [9]: binds
B4: His6-eIF4E (full length, WT) (protein, UniProt P48598-2 1-248)
chain: MVVLETEKTSAPSTEQGRPEPPTSAAAPAEAKDVKPKEDPQETGEPAGNTATTTAPAGDDAVRTEHLYKHPLMNVWTLWYLENDRSKSWEDMQNEITSFDTVEDFWSLYNHIKPPSEIKLGSDYSLFKKNIRPMWEDAANKQGGRWVITLNKSSKTDLDNLWLDVLLCLIGEAFDHSDQICGAVINIRGKSNKISIWTADGNNEEAALEIGHKLRDALRLGRNNSLQYQLHKDTMVKQGSNVKSIYTL
